Assay [1] deals with SARS-CoV-2 -1 PRF reporter mCherry-FSE-GFP(-1). In words: mCherry (red) intensity as percent of control; higher = higher upstream reporter expression. The settings on record: 10 µM; 24 h; HEK293T.
The test system is the same in assay [2]. In words: percent effect, decrease of GFP/mCherry ratio (-1 PRF reporter) relative to controls; higher = stronger frameshift inhibition. The settings on record: 10 µM; 24 h; HEK293T.

The list shows a part of the results. This data set is noisy: repeats of one test often differ as much as different tests do.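 HEK293T cells were given each compound shortly before transfection with a reporter in which red mCherry is followed by the SARS-CoV-2 frameshift element and then GFP in the −1 frame, so GFP appears only after frameshifting.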

`CC1(C)C[C@@H]1C(=O)N/C(=C\CCCCSC[C@H](N)C(=O)O)C(=O)O` [Cilastatin]: the mCherry in assay [1] stood at 103%. Besides, the percent effect in assay [2] amounted to 0.249%.

In assay [1], `CCOCCn1cc(C(=O)Nc2ccc(-n3nc(-c4cccnc4)cc3C(F)(F)F)cn2)ccc1=O` displayed a mCherry of 28.8%. In addition, the percent effect in assay [2] is -3.48%.

On to `C[C@@H]1O[C@@H](OC[C@H]2O[C@@H](Oc3c(-c4ccc(OCCO)c(OCCO)c4)oc4cc(OCCO)cc(O)c4c3=O)[C@H](O)[C@@H](O)[C@@H]2O)[C@H](O)[C@H](O)[C@H]1O`, for which, in assay [1], the mCherry came out at 107%. In addition, the percent effect in assay [2] was -5.35%.

For `CC(C)=CCNc1ncnc2c1ncn2[C@@H]1O[C@H](CO)[C@@H](O)[C@H]1O` [riboprine], the mCherry in assay [1] is 78.5%. For the same molecule, the percent effect in assay [2] is -4.05%.

Molecule `CC(C)c1ncc([N+](=O)[O-])n1C` [ipronidazole] yielded a mCherry in assay [1] of 85.8%. In addition, the percent effect in assay [2] is -1.54%.

As for `Clc1ccc(COC(Cn2ccnc2)c2ccc(Cl)cc2Cl)cc1` (stereo not drawn), the mCherry in assay [1] came to 112%. Besides, in assay [2], the percent effect was -4.71%.

`OC(CCN1CCCCC1)(c1ccccc1)C1CCCC1` (stereo not drawn) [cycrimine] had a mCherry in assay [1] of 92.2%. Moreover, the percent effect in assay [2] is -2.24%.

The molecule `O=C(O)Cc1sc(-c2ccccc2)nc1-c1ccc(Cl)cc1` [fentiazac] registered a mCherry in assay [1] of 93.2%. Besides, the percent effect in assay [2] was -2.55%.

With `C[C@H](N)C(=O)N[C@@H](C)P(=O)(O)O` [alafosfalin], in assay [1], the mCherry was 98.4%. In addition, in assay [2], the percent effect was -2.35%.

Molecule `CCC(=O)NCC[C@@H]1CCc2ccc3c(c21)CCO3` [ramelteon] registered a mCherry in assay [1] of 85.1%. Moreover, the percent effect in assay [2] is -0.838%.

Turning to `C=C[C@]1(C)C[C@@H](OC(=O)CS[C@@H]2C[C@H]3CC[C@@H](C2)N3C)[C@]2(C)[C@H](C)CC[C@]3(CCC(=O)[C@H]32)[C@@H](C)[C@@H]1O` [retapamulin], the mCherry in assay [1] is 112%. Further, in assay [2], the percent effect was -9.82%.

Molecule `O=c1n(CCCN2CCN(c3cccc(Cl)c3)CC2)nc2ccccn12` [trazodone] came in with a mCherry in assay [1] of 129%. The percent effect in assay [2] is 0.925%.

As for `CCCCCCc1ccc(O)cc1O`, in assay [1], the mCherry came to 98.4%. In assay [2], the percent effect was -1.14%.

For `CCC(=O)O[C@]1(C(=O)CCl)[C@@H](C)C[C@H]2[C@@H]3CCC4=CC(=O)C=C[C@]4(C)[C@@]3(F)[C@@H](O)C[C@@]21C`, in assay [1], the mCherry was determined as 140%. The percent effect in assay [2] was found to be 2.81%.

In turn, `CCOC(=O)COc1ccc2c(C)c(CCN(CC)CC)c(=O)oc2c1` [Carbocromen] yielded a mCherry in assay [1] of 115%. For the same molecule, in assay [2], the percent effect was -0.604%.

Consider `CC(=O)[C@@]1(O)CC[C@H]2[C@@H]3C=C(Cl)C4=CC(=O)[C@@H]5C[C@@H]5[C@]4(C)[C@H]3CC[C@@]21C` [cyproterone], for which the mCherry in assay [1] stood at 81.5%. For the same molecule, the percent effect in assay [2] is -2.64%.

In turn, `CC(C(=O)O)c1ccc(N2CC=CC2)c(Cl)c1` (stereo not drawn) [pirprofen] registered a mCherry in assay [1] of 94.9%. Also, in assay [2], the percent effect was -4.04%.

Molecule `CCCCC[C@H](O)/C=C/[C@@H]1[C@H]2C/C(=C/CCCC(=O)O)O[C@H]2C[C@H]1O` [Epoprostenol] gave a mCherry in assay [1] of 93%. Besides, the percent effect in assay [2] was found to be 0.346%.

In the case of `OC(C1=NCCN1)(c1ccc(Cl)cc1)c1ccccn1` (stereo not drawn) [dazadrol], the mCherry in assay [1] was 71.5%. In addition, the percent effect in assay [2] is -8.4%.

Take `Nc1ncnc2c1ncn2Cc1c(F)cccc1Cl` [arprinocid]: the mCherry in assay [1] is 88.6%. In addition, the percent effect in assay [2] is -5.34%.

With `O=C1NS(=O)(=O)c2ccccc21`, in assay [1], the mCherry was determined as 142%. Further, in assay [2], the percent effect was found to be 2.22%.

Turning to `NC(=O)C1=CN([C@@H]2O[C@H](COP(=O)(O)OP(=O)(O)OC[C@H]3O[C@@H](n4cnc5c(N)ncnc54)[C@H](O)[C@@H]3O)[C@@H](O)[C@H]2O)C=CC1`, the mCherry in assay [1] came to 113%. Also, the percent effect in assay [2] is -8.08%.

In turn, `C[C@H](O)[C@H](O)[C@H]1CNc2nc(N)[nH]c(=O)c2N1` [Tetrahydrobiopterin] had a mCherry in assay [1] of 112%. Further, the percent effect in assay [2] is 4.98%.

Consider `CC(=O)O[C@]1(C(C)=O)CC[C@H]2[C@@H]3C[C@H](C)C4=CC(=O)CC[C@]4(C)[C@H]3CC[C@@]21C`, for which, in assay [1], the mCherry stood at 117%. Besides, in assay [2], the percent effect was -10.1%.

These data come from the supplement of paper PMC8256030.
